{"sequences": {"note": "Sequences of proteins named here, by UniProt entry; tags and fusion partners are left off.", "UniProt Q39255": "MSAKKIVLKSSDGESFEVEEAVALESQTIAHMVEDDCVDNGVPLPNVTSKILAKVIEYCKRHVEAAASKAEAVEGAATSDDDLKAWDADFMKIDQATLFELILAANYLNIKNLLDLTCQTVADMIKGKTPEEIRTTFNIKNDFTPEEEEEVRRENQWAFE"}, "source": "paper PMC5913607", "molecules": {"B1": {"name": "HA-AtD14, Q9SQR3 1-267 (protein)", "chain": "MSQHNILEALNVRVVGTGDRILFLAHGFGTDQSAWHLILPYFTQNYRVVLYDLVCAGSVNPDYFDFNRYTTLDPYVDDLLNIVDSLGIQNCAYVGHSVSAMIGIIASIRRPELFSKLILIGFSPRFLNDEDYHGGFEEGEIEKVFSAMEANYEAWVHGFAPLAVGADVPAAVREFSRTLFNMRPDISLFVSRTVFNSDLRGVLGLVRVPTCVIQTAKDVSVPASVAEYLRSHLGGDTTVETLKTEGHLPQLSAPAQLAQFLRRALPR"}}, "key": {"[1]": {"biological_target": "T1, His-D3 (full-length Oryza sativa D3) (Oryza sativa) (UniProt Q5VMP0)", "T1 sequence": "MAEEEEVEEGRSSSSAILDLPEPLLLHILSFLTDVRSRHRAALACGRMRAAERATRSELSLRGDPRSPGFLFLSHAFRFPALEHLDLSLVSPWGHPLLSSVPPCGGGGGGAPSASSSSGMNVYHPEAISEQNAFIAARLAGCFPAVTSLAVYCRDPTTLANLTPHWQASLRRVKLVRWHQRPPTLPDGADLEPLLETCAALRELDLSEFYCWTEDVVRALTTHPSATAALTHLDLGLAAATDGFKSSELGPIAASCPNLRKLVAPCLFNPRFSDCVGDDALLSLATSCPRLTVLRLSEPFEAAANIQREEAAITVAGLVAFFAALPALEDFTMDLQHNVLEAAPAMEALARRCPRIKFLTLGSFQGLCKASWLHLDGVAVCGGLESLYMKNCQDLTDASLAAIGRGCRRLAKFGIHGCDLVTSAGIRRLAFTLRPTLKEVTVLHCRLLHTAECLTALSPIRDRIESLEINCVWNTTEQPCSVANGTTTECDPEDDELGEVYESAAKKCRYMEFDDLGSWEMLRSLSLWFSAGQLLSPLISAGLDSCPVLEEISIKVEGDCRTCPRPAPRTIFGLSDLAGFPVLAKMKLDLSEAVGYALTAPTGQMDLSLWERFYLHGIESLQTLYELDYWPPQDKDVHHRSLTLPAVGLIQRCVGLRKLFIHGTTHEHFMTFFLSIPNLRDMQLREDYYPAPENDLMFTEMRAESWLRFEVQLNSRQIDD", "experiment": "co-purification; His6-tagged F-box protein co-expressed with ASK1 in sf9 cells; Ni-NTA, then HiTrap Q and Superdex 200 10/300; 20 mM MES pH 6.5, 150 mM NaCl, 5 mM DTT"}, "[2]": {"biological_target": "T2, His-MAX2 (full-length Arabidopsis thaliana MAX2) (Arabidopsis thaliana) (UniProt Q9SIM9)", "T2 sequence": "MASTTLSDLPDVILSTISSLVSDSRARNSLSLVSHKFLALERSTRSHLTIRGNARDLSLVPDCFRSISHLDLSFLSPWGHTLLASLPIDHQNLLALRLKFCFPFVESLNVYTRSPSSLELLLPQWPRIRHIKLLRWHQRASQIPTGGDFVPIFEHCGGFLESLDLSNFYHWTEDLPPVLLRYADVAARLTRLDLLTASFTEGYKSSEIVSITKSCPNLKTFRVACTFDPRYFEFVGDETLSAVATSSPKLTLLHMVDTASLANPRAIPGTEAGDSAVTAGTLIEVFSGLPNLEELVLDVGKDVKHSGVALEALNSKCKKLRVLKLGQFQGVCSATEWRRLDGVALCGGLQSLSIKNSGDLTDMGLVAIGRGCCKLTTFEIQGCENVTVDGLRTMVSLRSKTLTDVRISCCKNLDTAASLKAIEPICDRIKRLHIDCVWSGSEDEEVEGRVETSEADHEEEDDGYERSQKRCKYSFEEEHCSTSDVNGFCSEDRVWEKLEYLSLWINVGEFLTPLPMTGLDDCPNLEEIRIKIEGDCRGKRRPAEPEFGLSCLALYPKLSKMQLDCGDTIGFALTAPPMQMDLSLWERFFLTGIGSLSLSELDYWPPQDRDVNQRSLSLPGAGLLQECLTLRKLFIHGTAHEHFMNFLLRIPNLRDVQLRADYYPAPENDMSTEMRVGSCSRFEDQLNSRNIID", "experiment": "co-purification; His6-tagged F-box protein co-expressed with ASK1 in sf9 cells; Ni-NTA, then HiTrap Q and Superdex 200 10/300; 20 mM MES pH 6.5, 150 mM NaCl, 5 mM DTT"}, "[3]": {"biological_target": "T3, GFP–MAX2 (Arabidopsis thaliana), Q9SIM9", "T3 chain": "T2 sequence", "experiment": "co-IP; Arabidopsis protoplasts (Col-0 or smxl6 smxl7 smxl8 triple mutant) transformed with HA-AtD14 and GFP–MAX2, pre-treated with 100 uM rac-GR24 for 1 h; IP with anti-GFP agarose in the presence or absence of 100 uM rac-GR24 at 4 °C; anti-HA blot", "conditions": "remark: other sources report otherwise"}}, "note": "Results are given in words; binding and its absence hold for the method and conditions named. For part of these data: In cells and extracts the contact can be indirect. Some results given as binding are weak or reduced against the parent protein; the word gives no strength. Where a sequence is shown, tags or fusion partners need not be part of it."}
{"molecule": "ASK1 (from UniProt Q39255 1-160)", "values": [{"measurement": "binding", "setting": "[1]", "result": "binds"}, {"measurement": "binding", "setting": "[2]", "result": "binds"}]}
{"molecule": "B1", "values": [{"measurement": "binding", "setting": "[3]", "result": "binds"}]}
